Test results as given in PubChem BioAssay AID1487 (National Center for Advancing Translational Sciences (NCATS), 2009).
The list shows a part of the results. The main result of the screen is listed elsewhere. These columns were measured beside it and carry no call. Compounds called inactive in the main read-out are mostly missing here. Potencies come from curve fits of mixed quality, noted in brackets.

Assay: qHTS Assay for Modulators of Lamin A Splicing
Settings: HeLa LMNA splicing GFP/RFP minigene ratio, 48 h
Summary of the method: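 S3 HeLa cells stably expressing lamin A-EGFP splicing minigene plus DsRed2, 600 cells/well, 48 h compound exposure at 37C. Laser-scanning cytometry; analysed as GFP (500-530 nm)/RFP (575-640 nm) total intensity ratio; 0.5% DMSO vehicle.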

[1] = measured here: RFP viability control channel
[2] = measured here: GFP splicing reporter channel

Compound	AC50 [1]	AC50 [2]
O=C(NCCN1CCOCC1)NC1(C(F)(F)F)Oc2ccc(Cl)cc2O1 (stereo unspecified)	11.2 µM [rising, partial curve]	–
COc1cccc(-n2c(SCc3ccc(F)cc3)nc3c([nH]c4ccccc43)c2=O)c1	–	5.01 µM [rising, single point]
Cc1nn2c(C)c(C(=O)NCc3ccc(OC(C)C)cc3)cnc2c1-c1ccc(F)cc1	0.00398 µM [falling, full curve, poor fit]	–
Nc1nn(-c2ccccc2)c(N)c1N=Nc1ccc2c(c1)OCO2	15.8 µM [rising, single point]	35.5 µM [rising, single point]
O=C(NN1C(=O)C2C3c4ccccc4C(c4ccccc43)[C@@H]2C1=O)c1ccccc1 (stereo partly specified)	12.6 µM [rising, partial curve]	–
Cc1ccc2c(c1)-c1c(c(C(=O)N3CCN(c4cc(C)ccc4C)CC3)nn1C)CS2	11.2 µM [rising, single point]	–
COc1ccccc1C(=O)Nc1ccc(N2CCN(C(C)=O)CC2)cc1	2.24 µM [rising, partial curve]	–
C=CCN1C2CCCC1CC(NC(=S)Nc1cccc(OC)c1)C2 (stereo unspecified)	–	0.0251 µM [falling, full curve, poor fit]
CNCCNS(=O)(=O)c1cccc2cnccc12	0.00447 µM [falling, full curve, poor fit]	5.62 µM [falling, partial curve, poor fit]
O=C(NCc1ccco1)c1cnn2c(C(F)(F)F)cc(-c3cccs3)nc12	–	31.6 µM [rising, single point]
O=C(CSc1ncnc2scc(-c3ccccc3)c12)N1CCN(Cc2ccc3c(c2)OCO3)CC1	12.6 µM [rising, partial curve]	–
O=C(Nc1ccc(-c2cnco2)cc1)c1ccccc1	0.01 µM [falling, full curve, poor fit]	–
C=C(C)c1cccc(C(C)(C)NC(=O)N2CCN(c3ccc(OC)cc3)CC2)c1	11.2 µM [rising, single point]	–
Cc1cc(C)n(-c2nc3c(c(=O)[nH]c(=O)n3C)n2CC(O)COc2ccc(Cl)cc2Cl)n1 (stereo unspecified)	0.2 µM [rising, full curve, poor fit]	–
CC(C)OCCCNC(=O)Cc1ccc(NC(=O)N2CCCCc3ccccc32)cc1	1 µM [falling, full curve, poor fit]	0.00282 µM [falling, full curve, poor fit]
CN(C)S(=O)(=O)c1ccc(NC(=O)N2CCN(c3cccc(C(F)(F)F)c3)CC2)cc1	6.31 µM [rising, full curve]	–
CC1=NN(c2ccccc2)C(=O)/C1=C/c1c(O)n(-c2ccc(F)c(Cl)c2)[nH]c1=O	17.8 µM [rising, single point]	31.6 µM [rising, single point]
CCCCc1nc(SCC(=O)Nc2ccc(S(N)(=O)=O)cc2)n[nH]1	–	7.08 µM [rising, partial curve, poor fit]
Cc1[nH]nc(N=CC2=C(O)CC(C)(C)CC2=O)c1-c1ccccc1	20 µM [rising, partial curve, poor fit]	–
Cc1ccc(C(C)(C)C)cc1S(=O)(=O)Nc1cccc(S(=O)(=O)NC2=NCCC2)c1	7.08 µM [rising, partial curve]	2.24 µM [rising, full curve, poor fit]

Look-ups from the entries so far:
AC50 [1], CC(C)OCCCNC(=O)Cc1ccc(NC(=O)N2CCCCc3ccccc32)cc1 is entered as 1 µM [falling, full curve, poor fit]
AC50 [1], Cc1[nH]nc(N=CC2=C(O)CC(C)(C)CC2=O)c1-c1ccccc1 is entered as 20 µM [rising, partial curve, poor fit]

(listing goes on)

Compound	AC50 [1]	AC50 [2]
N#Cc1c(-c2ccccc2)c(C#N)c2nc3ccccc3n2c1N	17.8 µM [rising, partial curve]	–
C/C(=N\NC(=O)c1ccccc1)c1cc2cc([N+](=O)[O-])ccc2oc1=O	35.5 µM [rising, single point]	–
C[n+]1ccn(CC(=O)c2ccc(Br)cc2)c1	10 µM [rising, partial curve, poor fit]	11.2 µM [rising, single point]
O=[N+]([O-])c1cc(C(F)(F)F)ccc1N1CCCC(O)C1 (stereo unspecified)	12.6 µM [rising, single point]	–
Cc1ccc(NC(=O)c2ccn(C)n2)c(Br)c1	0.0141 µM [falling, full curve, poor fit]	–
Cc1nnc(SCC(=O)N2CC(=O)Nc3ccccc32)n1-c1ccccc1	–	0.794 µM [rising, full curve, poor fit]
CCCCOc1cccc(C(=O)N(Cc2cccs2)C2CCS(=O)(=O)C2)c1 (stereo unspecified)	22.4 µM [rising, single point]	–
CCOc1cc(CNC(=O)C2CCN(c3nc4ccccc4[nH]3)CC2)cc(OCC)c1OCC	–	0.447 µM [rising, full curve]
COc1cccc(CC(=O)Nc2ccc(-c3nc4ccccc4s3)cc2Cl)c1	0.00447 µM [falling, full curve, poor fit]	1.78 µM [falling, partial curve, poor fit]
CCOc1ccc2nc(SCC(=O)NC3CCCc4ccccc43)sc2c1 (stereo unspecified)	10 µM [rising, partial curve]	11.2 µM [rising, partial curve]
CCOC(=O)CSC1=NC(=O)CS1	0.0794 µM [falling, full curve, poor fit]	–
O=C(Nc1ccccc1)c1ccc(COc2ccccc2)cc1	–	35.5 µM [rising, partial curve]
Cc1ccc2nsnc2c1NC(=O)c1ccc(-c2cc(Cl)ccc2Cl)o1	0.0447 µM [rising, full curve, poor fit]	–
CCN1CCN(C(=S)Nc2ccc3nc(N4CCN(CC)CC4)cc(C)c3c2)CC1	20 µM [rising, single point]	–
CCOc1ccc(NC(=O)COC(=O)c2ccc3c(c2)C(=O)N(CCc2ccccc2)C3=O)cc1	–	0.126 µM [rising, full curve, poor fit]
COc1ccc(CCNC(=O)CSc2nnc3ccccn23)cc1	0.0178 µM [falling, full curve]	0.0224 µM [falling, full curve]
CCc1ccccc1NS(=O)(=O)c1ccc2c(c1)CCCN2C(=O)C1CCC1	5.01 µM [falling, partial curve, poor fit]	1.41 µM [falling, full curve]
Cc1nn2c(=O)cc(COC(=O)c3ccccc3NC(=O)c3cccs3)nc2s1	–	3.16 µM [rising, partial curve, poor fit]
COc1ccc(Cc2c(Cl)ncnc2Cl)cc1	31.6 µM [rising, single point]	–
Cc1cc(C)c(S(=O)(=O)N2CCCOC2CNC(=O)C(=O)NCCc2c[nH]c3ccccc23)c(C)c1 (stereo unspecified)	14.1 µM [rising, partial curve]	–

Compound	AC50 [1]	AC50 [2]
O=C(Nc1cccnc1Cl)c1cc([N+](=O)[O-])ccc1Cl	–	0.00355 µM [rising, full curve, poor fit]
C/C(O)=C\c1nc2ccccc2oc1=O	11.2 µM [rising, single point]	–
Cc1c(C(=O)N2CCN(c3ccccc3F)CC2)sc2nc(-c3ccccc3)cn12	12.6 µM [rising, partial curve]	–
Cc1ncn(-c2ccc(C(=O)Oc3ccccc3)cn2)n1	35.5 µM [falling, single point]	–
CCN1CCN(c2ccc(NC(=O)CCc3c(C)nc4c(-c5ccc(F)cc5)c(C)nn4c3C)cc2)CC1	–	0.794 µM [falling, full curve, poor fit]
CC(C)OC(=O)CSc1nnc(-c2ccc([N+](=O)[O-])cc2)o1	–	1.26 µM [falling, full curve, poor fit]
CN1CCN(Cc2c(O)ccc3cc(-c4ccc(Cl)cc4)c(=O)oc23)CC1	–	12.6 µM [falling, single point]
CN(Cc1ccccc1)c1nc(N)c([N+](=O)[O-])c(NCc2ccccc2)n1	14.1 µM [rising, single point]	–
Cc1ccccc1CSCC(=O)N1CCN(c2ccccc2)CC1	35.5 µM [rising, single point]	35.5 µM [rising, single point]
O=C(CN1CCN(c2ccccc2F)CC1)Nc1ccccc1F	–	0.0708 µM [rising, full curve, poor fit]
OC(COc1ccccc1CNCc1cccnc1)CN1CCc2ccccc2C1 (stereo unspecified)	–	3.16 µM [falling, full curve, poor fit]
Cc1ccccc1CSCCNC(=O)c1ccc(Cl)c(S(=O)(=O)N2CCOCC2)c1	31.6 µM [rising, single point]	35.5 µM [rising, single point]
O=C(NCCC1=CCCCC1)C1CCN(Cc2cnn(-c3ccccc3)c2-n2cccc2)CC1	12.6 µM [rising, partial curve]	–
N#CC1=C(N)OC2=C(C(=O)CC(c3ccccc3)C2)C1c1cccnc1 (stereo unspecified)	0.0501 µM [rising, full curve, poor fit]	3.55 µM [rising, single point]
N#Cc1c(Oc2ccc3ccccc3c2)sc(C(=O)c2ccccc2)c1N	–	3.16 µM [falling, single point]
COc1cccc(Nc2ncc3nc(-c4cccs4)c(=O)n(Cc4cccs4)c3n2)c1	14.1 µM [falling, partial curve, poor fit]	–
C(=N/Nc1cc(N2CCOCC2)nc(N2CCOCC2)n1)/c1ccccc1	0.0794 µM [rising, partial curve]	–
COc1ccc(Nc2nc(S(=O)(=O)c3ccc(C)cc3)c(Cl)s2)cc1	12.6 µM [rising, partial curve, poor fit]	–
